Data reported in the supplement of paper PMC10060354, “Discovery of a small molecule ligand of FRS2 that inhibits invasion and tumor growth” (Cellular Oncology, 2022).

The chains behind the UniProt entries cited, without tags or fusion partners. Where a name states a change or a piece, a line headed by the entry shows the natural chain unless it says otherwise.
UniProt P51965: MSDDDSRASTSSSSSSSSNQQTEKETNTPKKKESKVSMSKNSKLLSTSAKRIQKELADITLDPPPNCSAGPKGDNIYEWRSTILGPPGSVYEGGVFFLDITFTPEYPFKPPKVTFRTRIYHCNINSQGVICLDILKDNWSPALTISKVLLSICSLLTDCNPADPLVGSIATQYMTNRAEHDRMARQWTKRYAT
UniProt Q86UL3: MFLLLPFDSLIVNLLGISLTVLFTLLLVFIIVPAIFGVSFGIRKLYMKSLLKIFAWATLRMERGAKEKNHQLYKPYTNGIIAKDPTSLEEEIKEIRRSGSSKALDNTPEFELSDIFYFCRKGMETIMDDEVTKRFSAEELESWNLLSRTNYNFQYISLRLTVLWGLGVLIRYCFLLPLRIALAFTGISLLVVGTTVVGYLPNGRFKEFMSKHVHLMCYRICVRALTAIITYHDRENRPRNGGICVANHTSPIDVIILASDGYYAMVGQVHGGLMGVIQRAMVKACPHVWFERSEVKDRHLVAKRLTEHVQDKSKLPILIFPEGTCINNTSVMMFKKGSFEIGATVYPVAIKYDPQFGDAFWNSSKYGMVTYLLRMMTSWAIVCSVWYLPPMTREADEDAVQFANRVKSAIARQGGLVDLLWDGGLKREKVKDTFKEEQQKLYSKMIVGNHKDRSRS
UniProt Q9NWV4: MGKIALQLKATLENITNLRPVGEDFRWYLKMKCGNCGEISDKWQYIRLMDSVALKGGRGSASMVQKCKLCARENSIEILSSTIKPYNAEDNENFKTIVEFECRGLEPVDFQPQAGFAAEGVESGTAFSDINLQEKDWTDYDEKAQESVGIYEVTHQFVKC
UniProt P25705: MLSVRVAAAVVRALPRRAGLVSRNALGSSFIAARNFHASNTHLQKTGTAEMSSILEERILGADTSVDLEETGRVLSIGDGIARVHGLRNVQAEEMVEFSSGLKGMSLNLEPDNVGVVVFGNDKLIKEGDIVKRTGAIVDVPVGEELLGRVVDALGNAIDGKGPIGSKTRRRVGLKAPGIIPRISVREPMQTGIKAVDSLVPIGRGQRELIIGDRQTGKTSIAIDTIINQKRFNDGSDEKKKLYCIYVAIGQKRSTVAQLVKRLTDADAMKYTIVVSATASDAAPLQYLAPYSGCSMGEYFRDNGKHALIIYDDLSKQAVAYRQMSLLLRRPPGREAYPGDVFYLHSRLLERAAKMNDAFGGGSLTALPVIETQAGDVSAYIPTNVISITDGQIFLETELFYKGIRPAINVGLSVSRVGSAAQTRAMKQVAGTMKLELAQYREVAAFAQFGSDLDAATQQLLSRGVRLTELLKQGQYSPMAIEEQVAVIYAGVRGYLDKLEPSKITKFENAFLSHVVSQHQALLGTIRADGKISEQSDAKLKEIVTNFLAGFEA
UniProt Q8NFD4: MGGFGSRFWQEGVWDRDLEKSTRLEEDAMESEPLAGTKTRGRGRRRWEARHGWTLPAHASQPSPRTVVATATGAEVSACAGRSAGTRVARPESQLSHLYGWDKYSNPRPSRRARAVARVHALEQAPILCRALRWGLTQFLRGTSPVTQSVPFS
UniProt P24844: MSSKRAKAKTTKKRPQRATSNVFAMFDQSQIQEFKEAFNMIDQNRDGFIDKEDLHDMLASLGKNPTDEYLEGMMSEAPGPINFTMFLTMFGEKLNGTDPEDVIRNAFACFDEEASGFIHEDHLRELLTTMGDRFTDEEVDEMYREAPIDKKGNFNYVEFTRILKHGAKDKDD
UniProt Q13416: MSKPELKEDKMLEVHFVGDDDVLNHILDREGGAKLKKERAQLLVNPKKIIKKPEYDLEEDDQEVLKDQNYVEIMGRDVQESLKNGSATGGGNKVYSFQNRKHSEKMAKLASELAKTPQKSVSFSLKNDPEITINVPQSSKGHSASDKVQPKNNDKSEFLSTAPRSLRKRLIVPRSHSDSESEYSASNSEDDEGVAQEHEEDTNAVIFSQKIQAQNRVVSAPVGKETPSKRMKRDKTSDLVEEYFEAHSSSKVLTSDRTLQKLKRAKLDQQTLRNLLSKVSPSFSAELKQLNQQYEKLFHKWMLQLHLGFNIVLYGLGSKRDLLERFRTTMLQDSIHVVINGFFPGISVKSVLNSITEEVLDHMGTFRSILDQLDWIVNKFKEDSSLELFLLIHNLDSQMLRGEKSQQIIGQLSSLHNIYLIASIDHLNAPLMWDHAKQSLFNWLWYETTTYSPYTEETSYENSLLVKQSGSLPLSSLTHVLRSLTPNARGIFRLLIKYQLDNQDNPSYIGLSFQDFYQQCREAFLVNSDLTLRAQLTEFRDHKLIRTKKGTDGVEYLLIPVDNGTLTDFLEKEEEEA
UniProt P27707: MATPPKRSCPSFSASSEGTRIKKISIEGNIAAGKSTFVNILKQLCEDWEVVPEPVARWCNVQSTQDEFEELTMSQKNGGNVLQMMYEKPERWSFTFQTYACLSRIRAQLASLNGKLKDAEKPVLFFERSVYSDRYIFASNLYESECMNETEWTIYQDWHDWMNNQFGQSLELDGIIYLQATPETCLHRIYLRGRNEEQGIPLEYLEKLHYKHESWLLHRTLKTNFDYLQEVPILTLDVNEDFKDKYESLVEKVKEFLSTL
UniProt Q8IVL5: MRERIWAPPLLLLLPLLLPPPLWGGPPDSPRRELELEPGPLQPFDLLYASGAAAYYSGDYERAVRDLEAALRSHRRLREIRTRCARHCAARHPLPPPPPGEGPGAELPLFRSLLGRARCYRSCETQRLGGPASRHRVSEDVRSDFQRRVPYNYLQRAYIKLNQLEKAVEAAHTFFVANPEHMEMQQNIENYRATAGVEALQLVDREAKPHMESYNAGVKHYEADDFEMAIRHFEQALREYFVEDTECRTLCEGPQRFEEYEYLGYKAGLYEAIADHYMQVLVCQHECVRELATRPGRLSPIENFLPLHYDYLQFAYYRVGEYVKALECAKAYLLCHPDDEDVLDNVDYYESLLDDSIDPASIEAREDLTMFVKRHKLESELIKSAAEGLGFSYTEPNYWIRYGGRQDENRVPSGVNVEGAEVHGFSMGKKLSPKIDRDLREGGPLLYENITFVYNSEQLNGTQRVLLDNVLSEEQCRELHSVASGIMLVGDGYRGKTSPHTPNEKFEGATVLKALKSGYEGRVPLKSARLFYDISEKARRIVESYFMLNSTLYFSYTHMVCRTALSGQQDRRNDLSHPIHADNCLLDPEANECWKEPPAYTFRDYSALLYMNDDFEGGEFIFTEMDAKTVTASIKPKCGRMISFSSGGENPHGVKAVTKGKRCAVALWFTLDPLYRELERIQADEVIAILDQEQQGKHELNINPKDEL
UniProt Q15819: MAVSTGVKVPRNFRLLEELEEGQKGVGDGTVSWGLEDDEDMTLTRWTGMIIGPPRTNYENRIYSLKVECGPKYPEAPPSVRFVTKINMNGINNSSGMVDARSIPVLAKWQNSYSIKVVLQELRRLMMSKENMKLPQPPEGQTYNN
UniProt Q5TCQ9: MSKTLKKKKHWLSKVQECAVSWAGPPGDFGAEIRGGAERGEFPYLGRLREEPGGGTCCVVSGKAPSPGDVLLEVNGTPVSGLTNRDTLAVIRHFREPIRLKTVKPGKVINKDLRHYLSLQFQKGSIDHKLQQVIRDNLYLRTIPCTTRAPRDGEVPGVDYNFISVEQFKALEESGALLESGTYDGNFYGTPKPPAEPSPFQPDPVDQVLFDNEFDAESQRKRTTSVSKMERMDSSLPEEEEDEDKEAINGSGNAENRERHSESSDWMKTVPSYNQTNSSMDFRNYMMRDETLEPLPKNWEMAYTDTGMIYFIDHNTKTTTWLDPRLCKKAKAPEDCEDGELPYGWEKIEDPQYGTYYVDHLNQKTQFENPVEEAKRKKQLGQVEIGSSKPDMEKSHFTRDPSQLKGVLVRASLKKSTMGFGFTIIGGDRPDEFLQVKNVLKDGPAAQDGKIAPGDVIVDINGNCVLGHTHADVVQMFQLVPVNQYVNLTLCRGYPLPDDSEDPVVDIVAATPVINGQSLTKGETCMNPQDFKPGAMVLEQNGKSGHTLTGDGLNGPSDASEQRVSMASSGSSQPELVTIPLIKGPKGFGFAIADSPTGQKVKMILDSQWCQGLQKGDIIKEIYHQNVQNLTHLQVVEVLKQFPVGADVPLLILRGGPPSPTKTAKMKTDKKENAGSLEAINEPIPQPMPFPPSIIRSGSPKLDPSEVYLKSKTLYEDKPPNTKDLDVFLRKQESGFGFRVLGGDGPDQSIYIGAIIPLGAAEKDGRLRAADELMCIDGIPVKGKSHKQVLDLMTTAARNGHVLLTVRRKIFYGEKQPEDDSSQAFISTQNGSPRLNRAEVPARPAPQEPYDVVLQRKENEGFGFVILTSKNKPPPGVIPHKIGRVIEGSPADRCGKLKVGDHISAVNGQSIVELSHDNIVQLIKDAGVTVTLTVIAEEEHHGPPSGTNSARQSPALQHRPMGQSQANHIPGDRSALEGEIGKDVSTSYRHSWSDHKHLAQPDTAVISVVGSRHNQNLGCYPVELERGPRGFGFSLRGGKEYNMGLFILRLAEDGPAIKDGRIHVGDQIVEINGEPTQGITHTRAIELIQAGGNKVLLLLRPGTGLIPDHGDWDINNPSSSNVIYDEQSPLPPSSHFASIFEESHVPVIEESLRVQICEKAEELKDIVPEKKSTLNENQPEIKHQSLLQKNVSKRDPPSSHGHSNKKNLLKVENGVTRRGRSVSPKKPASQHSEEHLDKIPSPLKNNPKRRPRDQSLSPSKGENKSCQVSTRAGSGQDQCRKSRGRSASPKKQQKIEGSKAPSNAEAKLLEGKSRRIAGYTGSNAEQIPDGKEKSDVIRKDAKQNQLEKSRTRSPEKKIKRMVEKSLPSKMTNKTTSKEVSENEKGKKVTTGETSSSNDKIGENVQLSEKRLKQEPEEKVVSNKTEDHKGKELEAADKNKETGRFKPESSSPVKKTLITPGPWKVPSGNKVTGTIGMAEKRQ
UniProt P00491: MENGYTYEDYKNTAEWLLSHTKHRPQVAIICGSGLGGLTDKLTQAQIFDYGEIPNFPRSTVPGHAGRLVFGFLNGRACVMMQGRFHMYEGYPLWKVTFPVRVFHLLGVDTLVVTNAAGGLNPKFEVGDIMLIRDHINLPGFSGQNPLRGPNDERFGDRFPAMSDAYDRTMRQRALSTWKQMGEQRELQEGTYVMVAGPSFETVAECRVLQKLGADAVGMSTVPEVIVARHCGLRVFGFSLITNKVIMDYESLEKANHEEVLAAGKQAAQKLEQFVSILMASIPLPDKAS
UniProt Q9BTA9: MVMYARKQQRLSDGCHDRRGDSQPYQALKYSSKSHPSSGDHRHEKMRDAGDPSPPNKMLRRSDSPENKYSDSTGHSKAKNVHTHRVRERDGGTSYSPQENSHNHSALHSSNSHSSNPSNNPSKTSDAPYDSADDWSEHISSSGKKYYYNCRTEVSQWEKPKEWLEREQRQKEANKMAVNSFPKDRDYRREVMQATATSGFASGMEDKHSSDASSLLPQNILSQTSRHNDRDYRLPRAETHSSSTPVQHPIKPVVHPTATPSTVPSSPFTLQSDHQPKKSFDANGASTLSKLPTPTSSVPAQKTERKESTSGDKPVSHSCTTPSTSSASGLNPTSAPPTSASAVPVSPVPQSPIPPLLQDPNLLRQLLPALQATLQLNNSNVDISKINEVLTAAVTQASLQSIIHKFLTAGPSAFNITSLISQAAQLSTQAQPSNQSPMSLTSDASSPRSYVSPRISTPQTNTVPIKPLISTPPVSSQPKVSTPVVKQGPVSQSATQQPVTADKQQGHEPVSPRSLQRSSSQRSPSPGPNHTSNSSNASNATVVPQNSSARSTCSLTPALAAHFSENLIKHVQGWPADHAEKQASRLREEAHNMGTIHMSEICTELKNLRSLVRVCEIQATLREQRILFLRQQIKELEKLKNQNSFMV
UniProt Q9Y2Z4: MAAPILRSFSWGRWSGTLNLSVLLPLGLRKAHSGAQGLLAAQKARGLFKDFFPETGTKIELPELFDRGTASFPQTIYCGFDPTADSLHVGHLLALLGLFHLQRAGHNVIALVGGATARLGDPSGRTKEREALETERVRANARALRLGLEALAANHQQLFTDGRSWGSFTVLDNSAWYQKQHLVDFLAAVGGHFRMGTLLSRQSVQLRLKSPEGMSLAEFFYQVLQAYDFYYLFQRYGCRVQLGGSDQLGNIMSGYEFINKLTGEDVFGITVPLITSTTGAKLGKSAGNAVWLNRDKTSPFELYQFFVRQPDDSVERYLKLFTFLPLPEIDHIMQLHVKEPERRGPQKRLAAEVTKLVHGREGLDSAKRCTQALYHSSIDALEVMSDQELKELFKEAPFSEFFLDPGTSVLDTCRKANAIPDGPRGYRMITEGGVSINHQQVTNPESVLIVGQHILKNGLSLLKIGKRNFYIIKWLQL
UniProt Q01130: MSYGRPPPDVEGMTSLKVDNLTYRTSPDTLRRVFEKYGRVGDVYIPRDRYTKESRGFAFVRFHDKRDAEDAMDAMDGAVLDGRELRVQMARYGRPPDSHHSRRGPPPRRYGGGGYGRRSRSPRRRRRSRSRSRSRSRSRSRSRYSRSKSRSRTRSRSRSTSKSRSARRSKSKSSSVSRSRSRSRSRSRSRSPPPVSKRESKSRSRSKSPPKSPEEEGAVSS
UniProt P07311: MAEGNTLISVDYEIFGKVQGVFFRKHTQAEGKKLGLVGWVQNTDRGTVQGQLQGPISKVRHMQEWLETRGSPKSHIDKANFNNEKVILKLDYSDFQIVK

Compound: [O-][N+](C(C1=C(C(O)=C2)NC(C(C=C3)=CC=C3Cl)C4C1C=CC4)=C2Cl)=O
Experiment: melting temperature shift (compound 7 minus DMSO); higher = compound stabilises the protein
Settings: 10 µM
Experimental: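 Thermal proteome profiling (TMT mass spectrometry) in intact DAOY medulloblastoma cells or DAOY lysates treated with 10 µM compound 7 or DMSO, heated at 10 temperatures from 40.5 to 73.8 °C for 3 min. Melting curves were fitted with the Bioconductor TPP package, and the melting point difference between compound and vehicle is reported per protein (single curve per condition).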

[1] = system: DAOY cell lysate, treatment time: 20 min, 4 °C
[2] = system: intact DAOY cells, treatment time: 90 min, 37 °C

Row | Target | melting temperature shift [1] [°C] | melting temperature shift [2] [°C]
1 | OGFOD3 (UniProt Q6PK18) | 3.01 | –
2 | POLE4 (UniProt Q9NR33) | -1.17 | –
3 | UniProt O75575 | -0.299 | –
4 | MTMR10 (UniProt Q9NXD2) | -0.636 | –
5 | UniProt Q96B96 | 4.86 | –
6 | DCTN5 (UniProt Q9BTE1) | 0.766 | 0.092
7 | EZR (UniProt P15311) | -0.0147 | 0.437
8 | SRPRA (UniProt P08240) | 0.423 | -1.16
9 | UniProt Q8NDT2 | 0.508 | –
10 | UniProt P28676 | -0.276 | 0.528
11 | UniProt A8MWX3 | – | 0.675
12 | UniProt Q8IUE6 | – | 0.17
13 | NOP16 (UniProt Q9Y3C1) | 1.5 | –
14 | UniProt Q9UHB7 | 0.253 | 1.66
15 | ERAP1 (UniProt Q9NZ08) | -0.078 | 0.551
16 | CTNND1 (UniProt O60716) | 1.38 | 0.0115
17 | TANC1 (UniProt Q9C0D5) | -0.539 | -0.0967
18 | UBE2E1 (UniProt P51965) | -0.493 | -0.534
19 | RAB12 (UniProt Q6IQ22) | -0.0158 | 1.47
20 | STRN3 (UniProt Q13033) | -0.0327 | -0.0642
21 | SKA1 (UniProt Q96BD8) | -2.01 | 0.057
22 | H6PD (UniProt O95479) | 1.6 | 0.92
23 | STK11IP (UniProt Q8N1F8) | -2.12 | –

Row | Target | melting temperature shift [1] [°C] | melting temperature shift [2] [°C]
24 | GPAT4 (UniProt Q86UL3) | 2 | -0.791
25 | UniProt O60282 | -1.15 | 2.24
26 | FAM50A (UniProt Q14320) | -0.213 | -0.197
27 | UniProt Q9NPH2 | -0.157 | –
28 | AGPS (UniProt O00116) | 1.24 | 0.767
29 | SEC63 (UniProt Q9UGP8) | 0.971 | -1.41
30 | UniProt P50226 | – | 0.594
31 | HNRNPH3 (UniProt P31942) | -0.226 | -0.413
32 | C1ORF123 (UniProt Q9NWV4) | 3.71 | 0.433
33 | UniProt C9JRZ8 | – | -0.829
34 | ATP5A1 (UniProt P25705) | 1.63 | -0.673
35 | RPUSD2 (UniProt Q8IZ73) | -0.315 | 1.67
36 | PRPF3 (UniProt O43395) | 0.822 | -0.923
37 | YIPF5 (UniProt Q969M3) | 2.44 | -2.11
38 | JTB (UniProt O76095) | – | 2.87
39 | CSRP1 (UniProt P21291) | -2.92 | –
40 | SUN2 (UniProt Q9UH99) | 3.1 | -0.0206
41 | UniProt Q8TE49 | – | 2.89
42 | TFG (UniProt Q92734) | -1.52 | 0.349
43 | UniProt Q9BQI6 | – | -0.67
44 | UniProt Q8NFD4 | -2.03 | 1.36
45 | UniProt P24844 | -0.122 | -0.474
46 | UniProt Q8TCB0 | 1.78 | 0.312

Row | Target | melting temperature shift [1] [°C] | melting temperature shift [2] [°C]
47 | TRAM1 (UniProt Q15629) | 1.03 | –
48 | TUBGCP2 (UniProt Q9BSJ2) | -0.318 | 1.01
49 | MRPL14 (UniProt Q6P1L8) | 0.262 | -1.89
50 | RPL19 (UniProt P84098) | 0.545 | -0.563
51 | PYCRL (UniProt Q53H96) | -0.634 | 0.532
52 | ORC2 (UniProt Q13416) | 1.22 | -2.77
53 | PPIL3 (UniProt Q9H2H8) | -0.216 | 0.362
54 | C11ORF98 (UniProt E9PRG8) | 2.08 | –
55 | RPL13 (UniProt P26373) | 0.692 | -0.768
56 | SPR (UniProt P35270) | -0.273 | -0.439
57 | UniProt Q53EU6 | 0.173 | 2.64
58 | UniProt Q9UHV7 | -2.17 | –
59 | ADAM9 (UniProt Q13443) | 1.14 | -0.339
60 | CCDC25 (UniProt Q86WR0) | -0.218 | 0.396
61 | RRP9 (UniProt O43818) | 1.45 | -0.236
62 | SPCS2 (UniProt Q15005) | 1.61 | -1.12
63 | UniProt Q9NWD8 | 0.279 | -2.26
64 | UniProt Q96PV6 | 1.64 | –
65 | CCDC86 (UniProt Q9H6F5) | 0.281 | -0.781
66 | EMC3 (UniProt Q9P0I2) | 0.824 | -0.709
67 | TM9SF2 (UniProt Q99805) | -0.151 | 0.0375
68 | UniProt Q14106 | -0.999 | 3.12
69 | UniProt Q7L311 | -2.77 | 3.49

Row | Target | melting temperature shift [1] [°C] | melting temperature shift [2] [°C]
70 | UniProt P15882 | -0.273 | –
71 | RUFY2 (UniProt Q8WXA3) | -1.24 | 1.57
72 | DCK (UniProt P27707) | -0.407 | -0.235
73 | UniProt Q9NYL2 | -0.385 | 0.0262
74 | EIF1 (UniProt P41567) | -1.41 | -0.163
75 | CYLD (UniProt Q9NQC7) | -0.594 | –
76 | IKBIP (UniProt Q70UQ0) | 0.822 | 0.919
77 | RPS3 (UniProt P23396) | -1.2 | -0.831
78 | UFD1L (UniProt Q92890) | -0.119 | -1.01
79 | AACS (UniProt Q86V21) | -1.24 | 0.368
80 | RAP1GDS1 (UniProt P52306) | -0.197 | 0.0631
81 | MRPL19 (UniProt P49406) | -0.717 | -1
82 | SRSF6 (UniProt Q13247) | 0.35 | 0.569
83 | UniProt O60879 | -0.744 | -0.0437
84 | PPP2R1B (UniProt P30154) | 0.208 | 0.31
85 | PDHB (UniProt P11177) | -0.245 | -0.841
86 | TRMT13 (UniProt Q9NUP7) | -0.247 | 1.29
87 | UniProt Q9NSB8 | – | -0.0465
88 | UniProt Q68DK2 | -3.22 | –
89 | P3H2 (UniProt Q8IVL5) | -0.551 | 1.28
90 | ASCC2 (UniProt Q9H1I8) | -0.0237 | 1.5
91 | UniProt Q99504 | -0.597 | -1.22
92 | ATG3 (UniProt Q9NT62) | -0.216 | -1

Row | Target | melting temperature shift [1] [°C] | melting temperature shift [2] [°C]
93 | UBE2V2 (UniProt Q15819) | -1.33 | -0.506
94 | PRPS2 (UniProt P11908) | -0.317 | 2.51
95 | UniProt Q9UJA3 | – | -0.773
96 | HEXA (UniProt P06865) | 0.288 | -1.4
97 | UniProt Q5TCQ9 | 0.116 | –
98 | PNP (UniProt P00491) | – | -1.55
99 | RRBP1 (UniProt Q9P2E9) | 1.55 | -0.332
100 | WAC (UniProt Q9BTA9) | -0.155 | -0.397
101 | UniProt Q00G26 | – | -0.602
102 | RPL26 (UniProt P61254) | -0.164 | -0.984
103 | YARS2 (UniProt Q9Y2Z4) | -0.0681 | 0.333
104 | NXF1 (UniProt Q9UBU9) | 0.186 | 1.73
105 | KIDINS220 (UniProt Q9ULH0) | 0.7 | 0.548
106 | ADAM17 (UniProt P78536) | -0.241 | 0.406
107 | TOM1 (UniProt O60784) | – | -0.00825
108 | UniProt Q9NX76 | 3.57 | -1.11
109 | SRSF2 (UniProt Q01130) | 0.183 | –
110 | TRMT5 (UniProt Q32P41) | 0.489 | 0.131
111 | GNB1 (UniProt P62873) | 4.11 | -0.9
112 | PURB (UniProt Q96QR8) | -1.54 | -0.486
113 | ACYP1 (UniProt P07311) | -0.0323 | -0.686

Five entries picked at random from those above, as already listed:
Row | Target | melting temperature shift [1] [°C] | melting temperature shift [2] [°C]
59 | ADAM9 (UniProt Q13443) | 1.14 | -0.339
98 | PNP (UniProt P00491) | – | -1.55
48 | TUBGCP2 (UniProt Q9BSJ2) | -0.318 | 1.01
54 | C11ORF98 (UniProt E9PRG8) | 2.08 | –
104 | NXF1 (UniProt Q9UBU9) | 0.186 | 1.73

Many values rest on one well or one pass, so single values are uncertain.
